No constants are given. Whether binding was seen depends on the method and setting. In cells and extracts the contact can be indirect.
Target: T1, endogenous UBF1/2 (upstream binding factor 1) (mouse (endogenous in mouse embryonic fibroblasts / 3T3 cells)) (UniProt P25976)
T1 sequence: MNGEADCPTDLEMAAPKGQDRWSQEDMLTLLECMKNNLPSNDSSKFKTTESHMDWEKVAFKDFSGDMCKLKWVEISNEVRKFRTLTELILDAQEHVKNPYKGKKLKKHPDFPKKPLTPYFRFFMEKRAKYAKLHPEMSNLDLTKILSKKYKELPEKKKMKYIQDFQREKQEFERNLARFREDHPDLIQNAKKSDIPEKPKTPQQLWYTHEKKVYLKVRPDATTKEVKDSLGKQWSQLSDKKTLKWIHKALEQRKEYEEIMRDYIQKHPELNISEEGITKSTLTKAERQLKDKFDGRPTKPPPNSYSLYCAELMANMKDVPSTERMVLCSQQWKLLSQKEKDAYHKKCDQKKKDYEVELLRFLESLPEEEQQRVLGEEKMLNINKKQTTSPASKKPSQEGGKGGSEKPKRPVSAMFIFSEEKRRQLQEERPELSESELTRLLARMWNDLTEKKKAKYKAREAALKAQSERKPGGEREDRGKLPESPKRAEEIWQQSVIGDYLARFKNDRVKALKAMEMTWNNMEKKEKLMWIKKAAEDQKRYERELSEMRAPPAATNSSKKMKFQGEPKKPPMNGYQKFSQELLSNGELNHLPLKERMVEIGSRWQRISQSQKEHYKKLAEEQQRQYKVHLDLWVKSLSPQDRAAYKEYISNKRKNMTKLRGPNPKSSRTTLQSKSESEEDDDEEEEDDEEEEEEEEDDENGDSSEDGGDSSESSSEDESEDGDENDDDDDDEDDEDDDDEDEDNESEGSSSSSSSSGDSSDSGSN
Experiment: co-IP; lysates of cells overexpressing full-length GFP-HP1β or GFP-HP1β-ΔCSD, immunoprecipitated with anti-UBF1 (H-300), Western blot of HP1β

binding: no binding
Substance: GFP-HP1β-ΔCSD (HP1β with a deleted chromo shadow domain) (domain or fragment)

Reference: PMC4293114
